# No constants are given. Whether binding was seen depends on the method and setting. In cells and extracts the contact can be indirect. Some results given as binding are weak or reduced against the parent protein; the word gives no strength.
# The chains behind the UniProt entries cited, without tags or fusion partners.
# UniProt P46937: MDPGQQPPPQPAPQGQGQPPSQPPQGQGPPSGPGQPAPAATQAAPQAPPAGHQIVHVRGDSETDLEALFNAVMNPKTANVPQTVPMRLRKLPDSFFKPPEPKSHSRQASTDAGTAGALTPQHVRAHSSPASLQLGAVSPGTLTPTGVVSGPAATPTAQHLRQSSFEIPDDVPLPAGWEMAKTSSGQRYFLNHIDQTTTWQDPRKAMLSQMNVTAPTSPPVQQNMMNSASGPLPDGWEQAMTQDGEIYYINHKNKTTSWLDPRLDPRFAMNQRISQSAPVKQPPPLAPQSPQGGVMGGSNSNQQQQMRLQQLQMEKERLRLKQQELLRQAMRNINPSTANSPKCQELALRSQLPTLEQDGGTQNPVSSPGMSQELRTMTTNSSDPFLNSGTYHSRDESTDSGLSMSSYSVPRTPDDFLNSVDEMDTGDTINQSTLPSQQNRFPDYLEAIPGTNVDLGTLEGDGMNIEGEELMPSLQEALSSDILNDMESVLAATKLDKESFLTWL
# UniProt P10244: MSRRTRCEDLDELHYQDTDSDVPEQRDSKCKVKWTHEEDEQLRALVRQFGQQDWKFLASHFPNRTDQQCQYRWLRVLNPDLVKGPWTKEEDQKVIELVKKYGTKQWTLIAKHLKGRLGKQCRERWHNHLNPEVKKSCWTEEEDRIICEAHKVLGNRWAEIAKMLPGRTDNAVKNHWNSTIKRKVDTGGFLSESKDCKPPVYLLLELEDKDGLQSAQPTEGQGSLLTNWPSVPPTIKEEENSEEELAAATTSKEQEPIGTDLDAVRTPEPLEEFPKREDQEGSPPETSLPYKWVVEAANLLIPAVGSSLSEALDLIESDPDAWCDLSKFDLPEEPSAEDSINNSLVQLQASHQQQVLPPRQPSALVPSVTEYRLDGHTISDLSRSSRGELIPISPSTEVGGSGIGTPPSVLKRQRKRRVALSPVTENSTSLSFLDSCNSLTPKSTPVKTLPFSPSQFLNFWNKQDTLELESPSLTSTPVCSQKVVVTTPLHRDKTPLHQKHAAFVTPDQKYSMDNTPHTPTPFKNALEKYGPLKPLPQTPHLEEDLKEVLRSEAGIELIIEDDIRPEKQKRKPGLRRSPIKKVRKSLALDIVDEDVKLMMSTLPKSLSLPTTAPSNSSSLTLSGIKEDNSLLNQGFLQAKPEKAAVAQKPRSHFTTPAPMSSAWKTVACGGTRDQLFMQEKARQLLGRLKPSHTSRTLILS
# Molecular target: Flag-tagged YAP (UniProt P46937)
# Assay: co-IP; HeLa cells transfected with pCDNA-HA-BMYB, pCDNA-FLAG-YAP and pCDNA-MY-COMP or empty vector (the text says doxycycline-induced MY-COMP); FLAG antibody on protein G dynabeads, 1 mg whole cell lysate in TNN buffer, five washes; bound HA-B-MYB detected by immunoblotting
substance,measurement,value
HA-tagged B-MYB (from UniProt P10244 1-700),binding,binds

# — paper PMC10873197
